Experimental data reported in the supplement of paper PMC12542422.
Structures can show the parent of a compound that is named as a salt. ± gives the standard deviation of the averaged measurements. The list shows a part of the results. Values are raw readings; no control value is given beside them.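 Across three biological replicates, HeLa cells were imaged for ribosome assembly using ENP1 staining (export block present or absent) or inducible tagged ribosomal protein reporters. Machine learning classified each cell's signal localization relative to DMSO controls. Hits exceeded the DMSO false-positive mean by five standard deviations and were then visually confirmed.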

system: HeLa RPL29-GFP reporter; test: fraction of reporter-positive cells with nuclear (nucleolar or nucleolar/nucleoplasmic) RPL29-GFP (MainHitrate); higher = more cells with nucleolar/nuclear readout signal (for ENP1 -LMB: less RNAPI inhibition; for +LMB ENP1 and RP reporters: stronger nuclear/nucleolar retention, i.e. ribosome biogenesis defect); settings: concentration: 1 µM; treatment time: 6 h

In order of falling “fraction of reporter-positive cells with nuclear” value:
1. [O-][n+]1ccccc1[S-].[O-][n+]1ccccc1[S-].[Zn+2] [Pyrithione zinc]  0.467 ± 0.28
2. CC[C@H]1CN2CCc3cc(OC)c(OC)cc3[C@@H]2C[C@@H]1C[C@H]1NCCc2cc(OC)c(OC)cc21 [Emetine]  0.419 ± 0.24
3. CC(C)c1c(CN(C)C(C)Cc2ccccc2)n(C)n(-c2ccccc2)c1=O (stereo not drawn) [Famprofazone]  0.323 ± 0.28
4. COc1ccc(OC)c(C(O)C(C)N)c1 (stereo not drawn) [Methoxamine HCl]  0.299 ± 0.21
5. C=C1CC[C@@]2(O)[C@H]3Cc4ccc(O)c5c4[C@@]2(CCN3CC2CC2)[C@H]1O5 [Nalmefene HCl]  0.294 ± 0.23
6. COc1cc2c(cc1OC)[C@@]13CCN4CC5=CCO[C@H]6CC(=O)N2[C@H]1[C@H]6[C@H]5C[C@H]43 [Brucine]  0.29 ± 0.25
7. CC(C)C[C@H]1C(=O)N2CCC[C@H]2[C@]2(O)O[C@](NC(=O)[C@@H]3C=C4c5cccc6[nH]c(Br)c(c56)C[C@H]4N(C)C3)(C(C)C)C(=O)N12 [Bromocriptine Mesylate]  0.289 ± 0.26
8. CC[N+]1(C)CCCC(OC(=O)C(O)(c2ccccc2)c2ccccc2)C1 (stereo not drawn) [Pipenzolate Bromide]  0.273 ± 0.26
9. CC(C)N(CCC(C(N)=O)(c1ccccc1)c1ccccn1)C(C)C (stereo not drawn) [Disopyramide Phosphate]  0.262 ± 0.27
10. c1ccc2c(c1)sc1ccccc12 [Dibenzothiophene]  0.243 ± 0.075
11. CCN(C)C(=O)Oc1cccc([C@H](C)N(C)C)c1 [Rivastigmine tartrate (Exelon)]  0.237 ± 0.042
12. CCCCCCCCCCCCCCCC[n+]1ccccc1 [Cetylpyridinium Chloride]  0.236 ± 0.039
13. O=P1(N(CCCl)CCCl)NCCCO1 (stereo not drawn) [Cyclophosphamide monohydrate]  0.233 ± 0.081
14. NCC1(CC(=O)O)CCCCC1 [Gabapentin (Neurontin)]  0.229 ± 0.059
15. Cc1cccc(C)c1NC1=NCCCS1 [Xylazine HCl]  0.223 ± 0.094
16. CCC(COC(=O)c1cc(OC)c(OC)c(OC)c1)(c1ccccc1)N(C)C (stereo not drawn) [Trimebutine]  0.22 ± 0.054
17. CC(=O)O[C@H]1C[C@@H]2CC[C@@H]3[C@H](CC[C@@]4(C)[C@H]3C[C@H]([N+]3(C)CCCCC3)[C@@H]4OC(C)=O)[C@@]2(C)C[C@@H]1[N+]1(C)CCCCC1 [Pancuronium (Pavulon)]  0.22 ± 0.054
18. C#C[C@]1(O)CC[C@H]2[C@@H]3CCC4=CC(=O)CC[C@]4(C)[C@H]3CC[C@@]21C [Ethisterone]  0.219 ± 0.056
19. CC(C)NCC(O)c1ccccc1Cl (stereo not drawn) [Clorprenaline HCL]  0.219 ± 0.055
20. CN1[C@@H]2CC[C@H]1C[C@@H](OC(=O)[C@H](CO)c1ccccc1)C2 [Hyoscyamine (Daturine)]  0.214 ± 0.085
21. CCOC(=O)c1cncn1[C@H](C)c1ccccc1 [Etomidate]  0.212 ± 0.056
22. CC(=O)O[C@@]12CO[C@@H]1C[C@@H](O)[C@@]1(C)C(=O)[C@H](O)C3=C(C)[C@@H](O)C[C@@](O)([C@@H](OC(=O)c4ccccc4)[C@H]21)C3(C)C [10-DAB (10-Deacetylbaccatin)]  0.209 ± 0.076
23. CCC1(c2cccc(O)c2)CCCCN(C)C1 (stereo not drawn) [Meptazinol HCl]  0.205 ± 0.072
24. CCCN1C[C@H](CSC)C[C@@H]2c3cccc4[nH]cc(c34)C[C@H]21 [Pergolide mesylate]  0.202 ± 0.066
25. CN(C)C(=O)Oc1ccc[n+](C)c1 [Pyridostigmine Bromide (Mestinon)]  0.199 ± 0.074
26. CC(C)N(CCNC(=O)CN1CCCC1=O)C(C)C [Pramiracetam]  0.198 ± 0.073
27. C[C@]12CC[C@H]3[C@@H](CC[C@@]45O[C@@H]4C(O)=C(C#N)C[C@]35C)[C@@H]1CC[C@@H]2O [Trilostane]  0.197 ± 0.079
28. NCC1(CC(=O)O)CCCCC1 [Gabapentin Hydrochloride]  0.19 ± 0.058
